# In article PMC5725455:
# These are yes or no findings as the source states them, for the method shown. Binding seen in cells or lysates may run through a third protein. Some binding calls cover weakened binding; strength is not graded here. For part of these data: Where a sequence is shown, tags or fusion partners need not be part of it.
# T1: Dual-specificity phosphatase 5 (DUSP5), endogenous (mouse (endogenous in RAW 264.7 and MEF)) (UniProt Q1HL35)
# T1 sequence: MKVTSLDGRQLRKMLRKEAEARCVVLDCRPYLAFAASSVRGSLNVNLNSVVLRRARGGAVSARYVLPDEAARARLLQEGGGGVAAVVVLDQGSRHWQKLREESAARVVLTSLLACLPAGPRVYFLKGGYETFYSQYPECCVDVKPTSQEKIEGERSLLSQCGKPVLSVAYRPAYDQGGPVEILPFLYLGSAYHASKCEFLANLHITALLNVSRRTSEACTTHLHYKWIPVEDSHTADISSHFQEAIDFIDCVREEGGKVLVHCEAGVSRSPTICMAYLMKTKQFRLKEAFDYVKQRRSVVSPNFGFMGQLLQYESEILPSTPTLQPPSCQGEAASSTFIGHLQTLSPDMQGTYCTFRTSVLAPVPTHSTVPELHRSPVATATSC
# T2: HA-IKKβ, O14920
# T2 chain: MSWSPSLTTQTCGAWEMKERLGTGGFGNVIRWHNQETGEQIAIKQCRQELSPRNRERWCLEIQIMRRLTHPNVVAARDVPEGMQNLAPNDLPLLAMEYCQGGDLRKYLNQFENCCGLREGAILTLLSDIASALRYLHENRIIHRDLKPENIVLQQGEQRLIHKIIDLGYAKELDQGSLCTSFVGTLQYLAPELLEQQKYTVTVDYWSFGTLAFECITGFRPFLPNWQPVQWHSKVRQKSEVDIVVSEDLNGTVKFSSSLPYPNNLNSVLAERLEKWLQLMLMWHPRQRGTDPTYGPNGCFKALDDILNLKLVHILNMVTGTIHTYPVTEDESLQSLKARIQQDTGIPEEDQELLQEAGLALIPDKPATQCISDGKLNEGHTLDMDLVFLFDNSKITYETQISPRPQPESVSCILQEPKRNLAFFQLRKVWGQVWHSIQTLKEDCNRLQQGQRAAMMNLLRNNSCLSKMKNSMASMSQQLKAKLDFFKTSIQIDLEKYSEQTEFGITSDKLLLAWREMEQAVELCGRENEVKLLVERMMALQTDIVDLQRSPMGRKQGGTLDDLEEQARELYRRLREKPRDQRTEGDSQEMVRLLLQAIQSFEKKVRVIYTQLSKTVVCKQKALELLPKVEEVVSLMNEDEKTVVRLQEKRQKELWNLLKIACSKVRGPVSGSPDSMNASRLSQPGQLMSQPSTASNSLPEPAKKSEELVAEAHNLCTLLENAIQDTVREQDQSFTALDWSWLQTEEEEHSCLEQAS
# T3: HA-IKKβ (UniProt O14920)
# T3 sequence: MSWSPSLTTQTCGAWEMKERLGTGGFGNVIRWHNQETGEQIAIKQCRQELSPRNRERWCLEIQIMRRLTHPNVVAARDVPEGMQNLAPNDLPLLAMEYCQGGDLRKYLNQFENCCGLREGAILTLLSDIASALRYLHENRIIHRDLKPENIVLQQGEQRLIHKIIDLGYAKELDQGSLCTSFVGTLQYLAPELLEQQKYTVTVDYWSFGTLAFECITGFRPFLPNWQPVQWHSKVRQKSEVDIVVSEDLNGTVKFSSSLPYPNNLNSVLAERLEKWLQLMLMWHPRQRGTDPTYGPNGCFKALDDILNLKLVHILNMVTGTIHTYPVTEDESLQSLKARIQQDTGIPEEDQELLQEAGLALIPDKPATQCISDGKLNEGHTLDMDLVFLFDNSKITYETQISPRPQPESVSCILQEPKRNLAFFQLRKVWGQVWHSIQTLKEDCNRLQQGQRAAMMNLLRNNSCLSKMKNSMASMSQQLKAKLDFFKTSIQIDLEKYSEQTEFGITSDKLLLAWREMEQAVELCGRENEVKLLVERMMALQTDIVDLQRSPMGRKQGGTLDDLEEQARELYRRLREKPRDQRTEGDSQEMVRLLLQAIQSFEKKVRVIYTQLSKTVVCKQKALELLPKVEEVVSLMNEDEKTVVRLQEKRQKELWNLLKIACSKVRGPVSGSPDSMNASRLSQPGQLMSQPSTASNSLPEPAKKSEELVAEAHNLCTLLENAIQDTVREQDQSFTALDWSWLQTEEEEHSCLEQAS
# Tests used:
# [1] = target: T1, Dual-specificity phosphatase 5 (DUSP5), endogenous (mouse (endogenous in RAW 264.7 and MEF)); assay: co-IP; DUSP5 WT MEFs (DUSP5 KO MEFs as control); Supplementary Figure 4
# [2] = target: T1, Dual-specificity phosphatase 5 (DUSP5), endogenous (mouse (endogenous in RAW 264.7 and MEF)); assay: co-IP; lysates of LPS-treated RAW 264.7 cells precipitated with anti-DUSP5 antibody (or goat pre-immune IgG) and protein A/G beads; blots with anti-IκBα, anti-IKKα/β and anti-TAK1
# HA-IKKβ, O14920 = target: T2, HA-IKKβ, O14920; assay: co-IP; HEK 293 cells co-transfected with HA-IKKβ and FLAG-TAK1 and 0.5, 1.0, 1.5 or 2.0 μg of FLAG-DUSP5 WT or C263S plasmid; lysates precipitated with anti-HA antibody and protein A/G beads; blot with anti-FLAG; details: remark: other sources report otherwise
# HA-IKKβ = target: T3, HA-IKKβ; assay: as above
binding [1],binding [2],"binding (HA-IKKβ, O14920)",binding (HA-IKKβ),Binder
binds,binds,,,"Transforming growth factor beta-activated kinase 1 (TAK1), endogenous (enzyme, UniProt Q62073 1-579) MSTASAASSSSSSSASEMIEAPSQVLNFEEIDYKEIEVEEVVGRGAFGVVCKAKWRAKDVAIKQIESESERKAFIVELRQLSRVNHPNIVKLYGACLNPVCLVMEYAEGGSLYNVLHGAEPLPYYTAAHAMSWCLQCSQGVAYLHSMQPKALIHRDLKPPNLLLVAGGTVLKICDFGTACDIQTHMTNNKGSAAWMAPEVFEGSNYSEKCDVFSWGIILWEVITRRKPFDEIGGPAFRIMWAVHNGTRPPLIKNLPKPIESLMTRCWSKDPSQRPSMEEIVKIMTHLMRYFPGADEPLQYPCQYSDEGQSNSATSTGSFMDIASTNTSNKSDTNMEQVPATNDTIKRLESKLLKNQAKQQSESGRLSLGASRGSSVESLPPTSEGKRMSADMSEIEARIVATAGNGQPRRRSIQDLTVTGTEPGQVSSRSSSPSVRMITTSGPTSEKPARSHPWTPDDSTDTNGSDNSIPMAYLTLDHQLQPLAPCPNSKESMAVFEQHCKMAQEYMKVQTEIALLLQRKQELVAELDQDEKDQQNTSRLVQEHKKLLDENKSLSTYYQQCKKQLEVIRSQQQKRQGTS"
binds,binds,,,"IκB kinase beta (IKKβ), endogenous (enzyme, UniProt O88351 1-757) MSWSPSLPTQTCGAWEMKERLGTGGFGNVIRWHNQATGEQIAIKQCRQELSPKNRNRWCLEIQIMRRLNHPNVVAARDVPEGMQNLAPNDLPLLAMEYCQGGDLRRYLNQFENCCGLREGAVLTLLSDIASALRYLHENRIIHRDLKPENIVLQQGEKRLIHKIIDLGYAKELDQGSLCTSFVGTLQYLAPELLEQQKYTVTVDYWSFGTLAFECITGFRPFLPNWQPVQWHSKVRQKSEVDIVVSEDLNGAVKFSSSLPFPNNLNSVLAERLEKWLQLMLMWHPRQRGTDPQYGPNGCFRALDDILNLKLVHVLNMVTGTVHTYPVTEDESLQSLKTRIQENTGILETDQELLQKAGLVLLPDKPATQCISDSKTNEGLTLDMDLVFLLDNSKINYETQITPRPPPESVSCILQEPKRNLSFFQLRKVWGQVWHSIQTLKEDCNRLQQGQRAAMMSLLRNNSCLSKMKNAMASTAQQLKAKLDFFKTSIQIDLEKYKEQTEFGITSDKLLLAWREMEQAVEQCGRENDVKHLVERMMALQTDIVDLQRSPMGRKQGGTLDDLEEQARELYRKLREKPRDQRTEGDSQEMVRLLLQAIQSFEKKVRVIYTQLSKTVVCKQKALELLPKVEEVVSLMNEDERTVVRLQEKRQKELWNLLKIACSKVRGPVSGSPDSMNVSRLSHPGQLMSQPSSACDSLPESDKKSEELVAEAHALCSRLESALQDTVKEQDRSFTTLDWSWLQMEDEERCSLEQACD"

# The remaining lines, values behind:
Binder,binding [1],binding [2],"binding (HA-IKKβ, O14920)",binding (HA-IKKβ)
"FLAG-tagged TAK1, O43318 1-606 (enzyme) MSTASAASSSSSSSAGEMIEAPSQVLNFEEIDYKEIEVEEVVGRGAFGVVCKAKWRAKDVAIKQIESESERKAFIVELRQLSRVNHPNIVKLYGACLNPVCLVMEYAEGGSLYNVLHGAEPLPYYTAAHAMSWCLQCSQGVAYLHSMQPKALIHRDLKPPNLLLVAGGTVLKICDFGTACDIQTHMTNNKGSAAWMAPEVFEGSNYSEKCDVFSWGIILWEVITRRKPFDEIGGPAFRIMWAVHNGTRPPLIKNLPKPIESLMTRCWSKDPSQRPSMEEIVKIMTHLMRYFPGADEPLQYPCQYSDEGQSNSATSTGSFMDIASTNTSNKSDTNMEQVPATNDTIKRLESKLLKNQAKQQSESGRLSLGASRGSSVESLPPTSEGKRMSADMSEIEARIAATTAYSKPKRGHRKTASFGNILDVPEIVISGNGQPRRRSIQDLTVTGTEPGQVSSRSSSPSVRMITTSGPTSEKPTRSHPWTPDDSTDTNGSDNSIPMAYLTLDHQLQPLAPCPNSKESMAVFEQHCKMAQEYMKVQTEIALLLQRKQELVAELDQDEKDQQNTSRLVQEHKKLLDENKSLSTYYQQCKKQLEVIRSQQQKRQGTS",,,binds,
"FLAG-tagged DUSP5 wild type (enzyme, UniProt Q16690 1-384) MKVTSLDGRQLRKMLRKEAAARCVVLDCRPYLAFAASNVRGSLNVNLNSVVLRRARGGAVSARYVLPDEAARARLLQEGGGGVAAVVVLDQGSRHWQKLREESAARVVLTSLLACLPAGPRVYFLKGGYETFYSEYPECCVDVKPISQEKIESERALISQCGKPVVNVSYRPAYDQGGPVEILPFLYLGSAYHASKCEFLANLHITALLNVSRRTSEACATHLHYKWIPVEDSHTADISSHFQEAIDFIDCVREKGGKVLVHCEAGISRSPTICMAYLMKTKQFRLKEAFDYIKQRRSMVSPNFGFMGQLLQYESEILPSTPNPQPPSCQGEAAGSSLIGHLQTLSPDMQGAYCTFPASVLAPVPTHSTVSELSRSPVATATSC",,,,binds
"FLAG-tagged DUSP5 C263S (catalytically inactive mutant) (enzyme, UniProt Q16690 1-384) MKVTSLDGRQLRKMLRKEAAARCVVLDCRPYLAFAASNVRGSLNVNLNSVVLRRARGGAVSARYVLPDEAARARLLQEGGGGVAAVVVLDQGSRHWQKLREESAARVVLTSLLACLPAGPRVYFLKGGYETFYSEYPECCVDVKPISQEKIESERALISQCGKPVVNVSYRPAYDQGGPVEILPFLYLGSAYHASKCEFLANLHITALLNVSRRTSEACATHLHYKWIPVEDSHTADISSHFQEAIDFIDCVREKGGKVLVHSEAGISRSPTICMAYLMKTKQFRLKEAFDYIKQRRSMVSPNFGFMGQLLQYESEILPSTPNPQPPSCQGEAAGSSLIGHLQTLSPDMQGAYCTFPASVLAPVPTHSTVSELSRSPVATATSC",,,,binds
"IκB kinase alpha (IKKα), endogenous (enzyme, UniProt Q60680 1-745) MERPPGLRPGAGGPWEMRERLGTGGFGNVSLYQHRELDLKIAIKSCRLELSSKNRERWCHEIQIMKKLDHANVVKACDVPEELNFLINDVPLLAMEYCSGGDLRKLLNKPENCCGLKESQILSLLSDIGSGIRYLHENKIIHRDLKPENIVLQDVGGKTIHKIIDLGYAKDVDQGSLCTSFVGTLQYLAPELFENKPYTATVDYWSFGTMVFECIAGYRPFLHHLQPFTWHEKIKKKDPKCIFACEEMTGEVRFSSHLPQPNSLCSLIVEPMESWLQLMLNWDPQQRGGPIDLTLKQPRCFALMDHILNLKIVHILNMTSAKIISFLLPCDESLHSLQSRIERETGINTGSQELLSETGISLDPRKPASQCVLDGVRGCDSYMVYLFDKSKTVYEGPFASRSLSDCVNYIVQDSKIQLPIIQLRKVWAEAVHYVSGLKEDYSRLFQGQRAAMLSLLRYNANLTKMKNTLISASQQLKAKLEFFRKSIQLDLERYSEQMTYGISSEKMLKAWKEMEEKAIHYSEVGVIGYLEDQIMSLHTEIMELQKSPYGRRQGDLMESLEQRAIDLYKQLKHRPPDHLYSDSTEMVKIIVHTVQSQDRVLKELFGHLSKLLGCKQKIIDLLPKVEVALSNIKEADNTVMFMQGKRQKEIWHLLKIACTQSSARSLVGSSLEGTVTPPVSAWLPPTLADREHPLTCVVTPQDGETLAQMIEENLNCLGHLSTIIREANEDQSSSLMSLDWSWLAE",binds,binds,,
